1 substance from paper PMC4384122 can be followed below.

Sequences of proteins named here, by UniProt entry; tags and fusion partners are left off.
UniProt Q15717: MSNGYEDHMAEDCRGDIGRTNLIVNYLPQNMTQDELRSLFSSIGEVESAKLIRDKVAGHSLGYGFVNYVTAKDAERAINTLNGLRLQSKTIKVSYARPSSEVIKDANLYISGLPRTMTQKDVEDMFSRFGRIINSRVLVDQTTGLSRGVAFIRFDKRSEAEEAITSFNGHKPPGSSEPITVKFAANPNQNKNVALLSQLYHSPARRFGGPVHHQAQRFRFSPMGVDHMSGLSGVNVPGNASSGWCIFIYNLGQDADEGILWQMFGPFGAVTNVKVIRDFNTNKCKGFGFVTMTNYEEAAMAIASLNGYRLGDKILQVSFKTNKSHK
UniProt P00519: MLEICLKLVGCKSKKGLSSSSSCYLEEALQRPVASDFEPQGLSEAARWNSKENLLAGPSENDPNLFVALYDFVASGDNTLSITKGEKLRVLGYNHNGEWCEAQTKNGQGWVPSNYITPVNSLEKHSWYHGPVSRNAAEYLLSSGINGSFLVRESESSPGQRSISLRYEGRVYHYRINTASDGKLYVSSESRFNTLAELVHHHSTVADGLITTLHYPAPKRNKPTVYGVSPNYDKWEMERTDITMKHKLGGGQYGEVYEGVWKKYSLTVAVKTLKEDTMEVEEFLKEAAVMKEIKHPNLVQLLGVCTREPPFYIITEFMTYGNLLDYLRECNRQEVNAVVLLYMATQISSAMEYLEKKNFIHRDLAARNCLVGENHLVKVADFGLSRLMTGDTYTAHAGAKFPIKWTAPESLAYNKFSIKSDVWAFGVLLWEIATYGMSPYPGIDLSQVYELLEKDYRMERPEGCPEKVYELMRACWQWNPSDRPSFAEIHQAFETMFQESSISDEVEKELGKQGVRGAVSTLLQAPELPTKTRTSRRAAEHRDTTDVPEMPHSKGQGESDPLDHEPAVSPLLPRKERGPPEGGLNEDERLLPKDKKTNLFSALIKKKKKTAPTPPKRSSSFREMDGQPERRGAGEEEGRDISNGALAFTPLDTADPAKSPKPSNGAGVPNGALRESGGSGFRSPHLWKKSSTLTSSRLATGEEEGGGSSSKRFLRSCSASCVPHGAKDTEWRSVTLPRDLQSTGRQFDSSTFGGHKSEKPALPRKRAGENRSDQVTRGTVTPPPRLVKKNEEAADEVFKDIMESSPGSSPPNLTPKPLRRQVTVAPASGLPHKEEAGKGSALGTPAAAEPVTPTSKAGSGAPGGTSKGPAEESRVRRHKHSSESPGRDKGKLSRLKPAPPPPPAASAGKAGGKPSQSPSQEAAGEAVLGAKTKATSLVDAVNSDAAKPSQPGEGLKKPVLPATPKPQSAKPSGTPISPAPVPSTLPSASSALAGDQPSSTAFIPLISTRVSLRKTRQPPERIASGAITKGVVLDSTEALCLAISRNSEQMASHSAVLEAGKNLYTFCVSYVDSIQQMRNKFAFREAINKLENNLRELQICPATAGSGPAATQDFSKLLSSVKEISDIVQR

Results are given in words; binding and its absence hold for the method and conditions named. Binding seen in cells or lysates may run through a third protein. Some entries that bind do so weakly or less than the wild type.

The target of assay [1] is HuR (mRNA binding protein HuR), endogenous (human (endogenous in U251)) (UniProt Q15717). Nature of the assay: co-IP; immunoprecipitation of HuR (HuR3A2 antibody) from cell lysates, immunoblot for Abl-1; cells in control condition, treated with EGF and bFGF, or EGF and bFGF with dasatinib 500 nM. (In general: Immunoblotting shows a protein as a band on a membrane.)
The next assay has as its target Flag-HuRwild (UniProt Q15717). The experiment in a line: co-IP; immunoprecipitation with Flag antibody of Flag-HuR or Flag-HuRmut, immunoblot for Src and Abl1; mouse IgG as control; in the presence of growth factors.

Take “Abl-1 kinase, endogenous (from UniProt P00519 1-1130) (enzyme)”: the binding entry (in assay [1]; with Flag-HuRwild) was “binds” each time.
